PubChem BioAssay AID1159584 – Peter MacCallum Cancer Centre, 2016

- Assay: 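Knock-downs that harm CDH1-null cells more than parental MCF10A cells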 (primary screen)
- Cell system: human MCF10A breast epithelial cells, parental and CDH1-null
- Reagents: siRNA against human genes
- Measurement: 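Cell viability by CellTiter-Glo ATP luminescence, each line scaled to the mean of mock wells across plates, then CDH1-null over parental ratio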
- Scale: CDH1-null / parental viability ratio: higher = CDH1-null cells survive relatively better than parental
In all, the deposit lists about 18,000 reagents; shown is an unselected part. Not all columns of the deposit are shown. Not given: the amount of reagent, the time to read-out.

CIMIP2A [SID134329787] gave CDH1-null / parental viability ratio 0.88.
For PTPN22 [SID134312998] the deposit lists CDH1-null / parental viability ratio 1.34.
Against HTN1 [SID134320666] the deposit lists CDH1-null / parental viability ratio 1.21.
For ECT2L [SID152153171] the deposit lists CDH1-null / parental viability ratio 0.95.
Against TMEM60 [SID134319113], the entry reads CDH1-null / parental viability ratio 1.12.
Depletion of RIMS2 [SID135621232] came out at: CDH1-null / parental viability ratio 1.1.
Depletion of ZNF32 [SID152154262] resulted in: CDH1-null / parental viability ratio 1.02.
For LSM1 [SID135620938], the entry reads CDH1-null / parental viability ratio 0.97.
With knock-down of TTC31 [SID152149767], the screen gave CDH1-null / parental viability ratio 1.05.
After knock-down of ANXA3 [SID152146960], the record shows CDH1-null / parental viability ratio 0.69.
Against TMPRSS11B [SID135621715] the deposit lists CDH1-null / parental viability ratio 1.04.
ATP5MF [SID135622370] showed CDH1-null / parental viability ratio 0.79.
KRTAP10-12 [SID134329233] scored CDH1-null / parental viability ratio 1.4.
For ERBB3 [SID135620617] the deposit lists CDH1-null / parental viability ratio 0.65.
Depletion of SLC16A9 [SID134323103] resulted in: CDH1-null / parental viability ratio 1.28.
After knock-down of TGFB1I1 [SID134311886] the results were CDH1-null / parental viability ratio 1.1.
Silencing of RXFP4 [SID152152625] gave: CDH1-null / parental viability ratio 1.37.
ZPR1 [SID135621830] gave CDH1-null / parental viability ratio 1.19.
Knock-down of NRARP [SID134329869] gave: CDH1-null / parental viability ratio 1.06.
ZNF146 [SID135623790] scored CDH1-null / parental viability ratio 0.99.
Knock-down of CD72 [SID134323292] gave: CDH1-null / parental viability ratio 0.96.
Against IGSF8 [SID152151310], the entry reads CDH1-null / parental viability ratio 1.29.
Against AP2S1 [SID152151895], the values are CDH1-null / parental viability ratio 1.12.
For FN3K [SID56479098], the values are CDH1-null / parental viability ratio 0.89.
With knock-down of UAP1L1 [SID134326438], the record shows CDH1-null / parental viability ratio 1.05.
For CHCHD3 [SID152152505], the values are CDH1-null / parental viability ratio 1.21.
For LENG8 [SID152155758] the deposit lists CDH1-null / parental viability ratio 0.74.
With knock-down of FOXI1 [SID135621649], the screen gave CDH1-null / parental viability ratio 1.01.
Silencing of YAP1 [SID134316489] resulted in: CDH1-null / parental viability ratio 0.91.
After knock-down of ENTPD7 [SID135623979], the screen gave CDH1-null / parental viability ratio 0.8.
After knock-down of ATOSA [SID152150857] the results were CDH1-null / parental viability ratio 1.25.
With knock-down of CABS1 [SID152151849], the screen gave CDH1-null / parental viability ratio 0.84.
With knock-down of PTTG1 [SID134310385], the screen gave CDH1-null / parental viability ratio 0.84.
With knock-down of SH3GL2 [SID152151281], the screen gave CDH1-null / parental viability ratio 0.92.
RNF43 [SID152150408] showed CDH1-null / parental viability ratio 1.02.

2 entries from above, arranged by “CDH1-null / parental viability ratio”, lowest first:
ECT2L [SID152153171] | CDH1-null / parental viability ratio: 0.95
HTN1 [SID134320666] | CDH1-null / parental viability ratio: 1.21
